The subject of this assay is BDF1 mice, P388 leukemia ip, median survival T/C. Description: NCI In Vivo Anticancer Drug Screen. Data for tumor model P388 Leukemia (intraperitoneal) in B6D2F1 (BDF1) mice. Conditions: T/C endpoint: median survival time, higher T/C = longer survival. In outline:
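T/C = treated-group survival ÷ vehicle-control survival; tumour transplanted into mice before dosing.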

Where [1] appears, read: dose: 100.0 mg/kg/injection, schedule: Q01DX009 (ip), vehicle: Klucel (hydroxypropylcellulose) (HPC).
The mark [2] stands for this setting: dose: 100.0 mg/kg/injection, schedule: Q01DX009 (ip), vehicle: saline with Tween-80.
Setting [3] is: dose: 400.0 mg/kg/injection, schedule: Q01DX009 (ip), vehicle: water.
Setting [4] is: dose: 60.0 mg/kg/injection, schedule: Q04DX003 (ip), vehicle: saline.
Where [5] appears, read: dose: 200.0 mg/kg/injection, schedule: Q01DX009 (ip), vehicle: saline with Tween-80.
[6] abbreviates: dose: 200.0 mg/kg/injection, schedule: Q04DX003 (ip), vehicle: saline with Tween-80.
[7] abbreviates: dose: 400.0 mg/kg/injection, schedule: Q01DX009 (ip), vehicle: saline with Tween-80.
The mark [8] stands for this setting: dose: 400.0 mg/kg/injection, schedule: Q04DX002 (ip), vehicle: saline with Tween-80.
Setting [9] is: dose: 200.0 mg/kg/injection, schedule: Q01DX009 (ip), vehicle: other.
The mark [10] stands for this setting: dose: 50.0 mg/kg/injection, schedule: Q01DX009 (ip), vehicle: saline with Tween-80.
[11] abbreviates: dose: 200.0 mg/kg/injection, schedule: Q01DX009 (ip), vehicle: saline.
The mark [12] stands for this setting: dose: 400.0 mg/kg/injection, schedule: Q01DX009 (ip), vehicle: saline.
The mark [13] stands for this setting: dose: 225.0 mg/kg/injection, schedule: Q01DX009 (ip), vehicle: Klucel (hydroxypropylcellulose) (HPC).

Each structure is given as a SMILES string. The list shows only some results of the screen, not a fair sample: it is rich in T/C values a quarter to a half above the control, in often repeated tests (any T/C) and in doses without a T/C. Further doses and runs are listed elsewhere. T/C: endpoint of the treated group in % of that of the vehicle group. Some doses have a count of surviving animals in place of a T/C: the source holds a T/C of zero for them, seemingly a mark for toxic or unscored doses. Some survivor counts are full or nearly so, which does not show that the dose was tolerated: the source hardly ever lists a survival T/C far under the control, and the zero likely stands for such cases as well. Counts of survivors are from the toxicity check (mostly the fifth day) where no day follows; animals may have died later. Schedule codes are those of the source, read here as Q, the interval in days (D) or hours (H), X, the number of doses. Where survival is the endpoint, the PubChem record calls one and a half times the control and up active, and a quarter to a half above the control has no call in these data; cut-offs in other NCI protocols can differ. Some entries hold several experiments; the results are listed from low to high.

`Cc1ccc(S(=O)(=O)N2CCC(=O)c3ccc(Cl)cc32)cc1`: under setting [1], the survivor count is 4 of 6.
As for `CN1CCN=C1c1ccc(NC(=O)c2ccc(C(=O)Nc3ccc(C4=NCCN4C)cc3)c(N)c2)cc1`, the T/C (dose: 1.3 mg/kg/injection, schedule: Q01DX009 (ip), vehicle: saline) is 129 % of control.
On to `COC(=O)C(CSCSCc1ccccc1)NC(=O)C(CSCc1ccccc1)NC(=O)CCNC(=O)OCc1ccccc1` (stereo not given), for which the T/C (dose: 6.25 mg/kg/injection, schedule: Q04DX003 (ip), vehicle: Klucel (hydroxypropylcellulose) (HPC)) is 138 % of control.
As to `CCOC(=O)C1=C(C)NC(C)=C(C(=O)OCC)C1c1ccccc1`, the survivor count under setting [2] is 6 of 6.
`CNC(=O)c1nc(C)c(C)[nH]c1=O`: the survivor count (dose: 100.0 mg/kg/injection, schedule: Q04DX003 (ip), vehicle: water) is reported as 6 of 6; the survivor count (dose: 200.0 mg/kg/injection, schedule: Q04DX003 (ip), vehicle: water) is recorded as 6 of 6; the survivor count under setting [3] was 2 of 6.
Consider `O=S1(=O)CC(Cl)C(Cl)C1` (stereo not given), for which the survivor count is recorded as 6 of 6 (dose: 6.25 mg/kg/injection, schedule: Q01DX009 (ip), vehicle: saline); 6 of 6 (dose: 12.5 mg/kg/injection, schedule: Q01DX009 (ip), vehicle: saline); 1 of 6 (dose: 40.0 mg/kg/injection, schedule: Q04DX003 (ip), vehicle: saline); 2 of 6 under setting [4].
Consider `CNc1ccccc1C#N`, for which the survivor count (dose: 200.0 mg/kg/injection, schedule: Q04DX003 (ip), vehicle: Klucel (hydroxypropylcellulose) (HPC)) is reported as 5 of 6 and the survivor count (dose: 400.0 mg/kg/injection, schedule: Q01DX009 (ip), vehicle: Klucel (hydroxypropylcellulose) (HPC)) was 6 of 6.
Consider `COC(=O)Cc1c[nH]c(=O)[nH]c1=O`, for which the survivor count reads like this: under setting [3], 3 of 6; (dose: 400.0 mg/kg/injection, schedule: Q04DX003 (ip), vehicle: water) 4 of 6.
Consider `COC(CN1C(=O)CSC1=S)OC`, for which the T/C by setting is: under setting [2], 126 and 134 % of control; under setting [5], 126 % of control.
Turning to `FC(F)(F)c1nc2nc(Br)c(Br)nc2[nH]1`, the survivor count under setting [6] is listed as 6 of 6 and the survivor count under setting [7] is 4 of 6.
With `Nc1cc(/C=C/c2ccc([N+](=O)[O-])cc2)nc2ccccc12`, the T/C (dose: 100.0 mg/kg/injection, schedule: Q04DX002 (ip), vehicle: saline with Tween-80) is 130 and 144 % of control. Further, the survivor count was 3 of 6 (dose: 200.0 mg/kg/injection, schedule: Q04DX002 (ip), vehicle: saline with Tween-80) and 0 of 6 under setting [8].
Turning to `CCN(CC)CCC1(C(N)=O)Cc2ccccc2N(CC)c2ccccc21` (stereo not given), under setting [7], the survivor count is 2 of 6.
As to `COc1cc2c3cc1Oc1c(OC)c(OC)cc4c1C(Cc1ccc(OC(C)=O)c(c1)Oc1ccc(cc1)CC3N(C)CC2)N(C)CC4` (stereo not given), the survivor count (dose: 100.0 mg/kg/injection, schedule: Q04DX003 (ip), vehicle: saline with Tween-80) is on record as 6 of 6.
In the case of `CCCCOC(=S)Nc1ccccc1`, the T/C under setting [9] is 125 % of control.
Consider `COc1ccc(C2=CC(c3ccc4c(c3)OCO4)c3c(c4ccccc4oc3=O)O2)cc1OC` (stereo not given), for which the survivor count (dose: 25.0 mg/kg/injection, schedule: Q04DX003 (ip), vehicle: water) is recorded as 6 of 6.
`COc1cc2c(c(OC)c1OC)C(=O)/C(=C\c1ccccc1)O2`: the survivor count runs as follows: under setting [10], 6 of 6; under setting [2], 6 of 6.
For the molecule `CCSc1ccc2c(cc1=O)[C@@H](NC1OC(CO)C(O)C(O)C1O)CCc1cc(OC)c(OC)c(OC)c1-2` (stereo not given in full), the T/C under setting [9] was 133 % of control.
As for `OCC1C=CCC1` (stereo not given), the survivor count is recorded as 3 of 6 under setting [10], 0 of 6 under setting [2] and 0 of 6 under setting [5].
On to `OCCN1CCN(CCCN2c3ccccc3Oc3ccc(C(F)(F)F)cc32)CC1`, for which the T/C (dose: 25.0 mg/kg/injection, schedule: Q01DX009 (ip), vehicle: Klucel (hydroxypropylcellulose) (HPC)) is 144 % of control; the T/C (dose: 50.0 mg/kg/injection, schedule: Q01DX009 (ip), vehicle: saline) is 125 % of control; the T/C under setting [4] was 125 % of control. Moreover, the survivor count is 3 of 10 under setting [1]; 3 of 8 (dose: 100.0 mg/kg/injection, schedule: Q01DX009 (ip), vehicle: saline); 0 of 10 (dose: 200.0 mg/kg/injection, schedule: Q01DX009 (ip), vehicle: Klucel (hydroxypropylcellulose) (HPC)); 0 of 8 under setting [11].
As for `COc1cccc(/C=N/NC(=O)C2CCN(C(=S)NC3CC4C=CC3C4)CC2)c1O` (stereo not given), the survivor count reads like this: (dose: 3.12 mg/kg/injection, schedule: Q01DX009 (ip), vehicle: saline with Tween-80) 5 of 6; (dose: 12.5 mg/kg/injection, schedule: Q01DX009 (ip), vehicle: saline with Tween-80) 6 of 6.
As for `CCCCCC(CN(C)C)C(=O)/C=C/c1cccc(O)c1` (stereo not given), under setting [5], the survivor count is listed as 2 of 6.
With `OCc1ccn2c1C(O)CC2` (stereo not given), the survivor count is, setting by setting: under setting [11], 6 of 6; under setting [12], 3 of 6.
With `Cc1ccc(/C(C#N)=C2C=C(Br)/C(=N\O)C=C/2Cl)cc1`, the survivor count is reported as 0 of 6 (dose: 150.0 mg/kg/injection, schedule: Q01DX009 (ip), vehicle: Klucel (hydroxypropylcellulose) (HPC)); 0 of 6 under setting [13]; 0 of 6 (dose: 335.0 mg/kg/injection, schedule: Q01DX009 (ip), vehicle: Klucel (hydroxypropylcellulose) (HPC)); 2 of 6 (dose: 400.0 mg/kg/injection, schedule: Q01DX001 (ip), vehicle: Klucel (hydroxypropylcellulose) (HPC)). Also, the T/C under setting [13] was 125 % of control.
With `Cc1cc2nc(N)sc2cc1C`, the T/C (dose: 50.0 mg/kg/injection, schedule: Q01DX009 (ip), vehicle: other) is 130 % of control.
As to `O=C1c2cc(Cl)ccc2-c2c(Cl)cc(Cl)cc21`, the survivor count under setting [2] is 6 of 6 and the survivor count under setting [7] is recorded as 6 of 6.
Regarding `C[C@]12C=CC(=O)C=C1CC[C@@H]1[C@@H]2CC[C@]2(C)OC(=O)CC[C@@H]12`, the survivor count (dose: 400.0 mg/kg/injection, schedule: Q04DX003 (ip), vehicle: saline with Tween-80) was 2 of 6.
In the case of `CCN(CC)Cc1nccn1-c1ccc([N+](=O)[O-])cc1C(=O)c1ccccc1Cl`, the survivor count under setting [11] is on record as 0 of 6.
For the molecule `CC(C(=O)O)S(=O)(=O)c1ccccc1` (stereo not given), the survivor count under setting [8] is recorded as 2 of 6.
Turning to `Clc1ccc(C2c3ccccc3C[n+]3ccccc32)cc1` (stereo not given), the survivor count reads like this: (dose: 35.0 mg/kg/injection, schedule: Q01DX009 (ip), vehicle: Klucel (hydroxypropylcellulose) (HPC)) 0 of 6; (dose: 50.0 mg/kg/injection, schedule: Q04DX003 (ip), vehicle: Klucel (hydroxypropylcellulose) (HPC)) 6 of 6.
Turning to `O=C(O)C1(NO)CCCC1`, the survivor count under setting [12] is listed as 0 of 6.
Regarding `COC1=C(N)C(=O)c2nc(-c3nc(C(=O)O)c(C)cc3N)ccc2C1=O`, the T/C is 132 % of control (dose: 0.02 mg/kg/injection, schedule: Q01DX009 (ip), vehicle: saline); 145 % of control (dose: 0.05 mg/kg/injection, schedule: Q01DX009 (ip), vehicle: saline); 125 % of control (dose: 0.1 mg/kg/injection, schedule: Q01DX009 (ip), vehicle: saline).
With `COc1cccn(C/C=C(\C)CCC=C(C)C)c1=O`, the survivor count by setting is: under setting [2], 6 of 6; (dose: 120.0 mg/kg/injection, schedule: Q01DX009 (ip), vehicle: saline with Tween-80) 3 of 6; (dose: 160.0 mg/kg/injection, schedule: Q01DX009 (ip), vehicle: saline with Tween-80) 0 of 6; under setting [6], 3 of 6.

Source of the values: PubChem BioAssay AID328 (DTP/NCI, 2004).
